In paper PMC9963772 one finds binding data, which are given here for nine molecules.

Amino acid sequences for entries named in this document (tags omitted). A change or cut given only in a name is not applied to a line headed by its entry.
UniProt C1G7K6: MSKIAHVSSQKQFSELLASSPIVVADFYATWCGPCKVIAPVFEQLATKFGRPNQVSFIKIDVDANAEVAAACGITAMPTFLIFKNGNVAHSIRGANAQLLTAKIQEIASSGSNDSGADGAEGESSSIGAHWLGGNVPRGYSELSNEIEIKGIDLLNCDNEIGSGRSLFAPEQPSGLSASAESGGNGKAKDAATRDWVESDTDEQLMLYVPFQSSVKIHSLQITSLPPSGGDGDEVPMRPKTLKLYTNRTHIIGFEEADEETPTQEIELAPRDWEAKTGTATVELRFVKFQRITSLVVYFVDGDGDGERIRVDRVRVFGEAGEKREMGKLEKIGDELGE
UniProt C1G3N5: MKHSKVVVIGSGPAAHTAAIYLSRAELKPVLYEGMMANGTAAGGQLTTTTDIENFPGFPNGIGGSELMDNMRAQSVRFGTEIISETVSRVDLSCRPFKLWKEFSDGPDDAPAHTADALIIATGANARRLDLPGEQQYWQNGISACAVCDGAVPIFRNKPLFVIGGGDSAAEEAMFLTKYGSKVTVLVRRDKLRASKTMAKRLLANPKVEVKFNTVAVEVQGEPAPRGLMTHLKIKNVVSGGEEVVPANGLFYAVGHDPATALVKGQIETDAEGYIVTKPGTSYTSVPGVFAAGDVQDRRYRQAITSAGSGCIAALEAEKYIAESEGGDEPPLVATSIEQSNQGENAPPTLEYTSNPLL
UniProt C1GJI6: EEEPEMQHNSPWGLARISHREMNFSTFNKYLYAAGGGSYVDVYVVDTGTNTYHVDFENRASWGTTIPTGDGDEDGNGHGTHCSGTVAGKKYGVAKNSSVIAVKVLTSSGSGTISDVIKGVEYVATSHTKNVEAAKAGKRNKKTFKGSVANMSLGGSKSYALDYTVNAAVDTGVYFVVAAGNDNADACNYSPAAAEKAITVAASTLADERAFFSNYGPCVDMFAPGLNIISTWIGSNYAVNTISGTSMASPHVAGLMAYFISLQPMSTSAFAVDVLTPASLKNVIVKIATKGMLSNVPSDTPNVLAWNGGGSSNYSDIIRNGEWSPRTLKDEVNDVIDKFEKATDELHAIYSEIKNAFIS

No constants are given. Whether binding was seen depends on the method and setting. In cells and extracts the contact can be indirect. A yes stands for co-enrichment or nearness to the bait. Other partners may have been found.

This experiment addresses T1, Copper metallochaperone Atx1 of Paracoccidioides brasiliensis, recombinant (Paracoccidioides brasiliensis) (UniProt C1G2I6).
T1 sequence: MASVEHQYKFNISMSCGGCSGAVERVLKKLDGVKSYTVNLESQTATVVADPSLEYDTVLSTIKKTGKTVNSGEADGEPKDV
Kind of experiment: affinity purification with mass spectrometry; recombinant PbAtx1 immobilised on Ni-NTA resin; 300 ug P. brasiliensis (Pb18) protein extract, 2 h at 4 °C; 5 washes with 50 mM sodium phosphate, 500 mM NaCl, 20 mM imidazole, pH 8.0; eluted with 250 mM imidazole; NanoUPLC-MSE; control: resin without PbAtx1; only the target purified.

For the molecule Thioredoxin (from UniProt C1G7K6), the binding result is “binds”. The value for “Thioredoxin reductase (from UniProt C1G3N5)” was “binds”; that for “Mitochondrial zinc maintenance protein 1, mitochondrial” was “binds”; that for Serine proteinase (from UniProt C1GJI6) was “binds”.

B1: hypothetical protein PADG_07883 (protein, UniProt C1GL97 1-81)
chain: MGHSGFSQYRLYYGGVARVDSALSVRDGTGAGAGAGAGEAAVDVAMKRKKMNEKPDTIDQAHIHRDDDDDDDDDDDDDDND
With B1, the binding result is given as “binds”.

B2: hypothetical protein PADG_03788 (protein, UniProt C1G952 1-306)
chain: MAPDRFGKSVFLGNIPYNLTEEQVKDILSSAGTVTKFRLMINPETGKPKGYGFADFADADAAASAVRNLNDYEIMGRKIRVDWPHNNEKDSVPPDYSQQSQMGMMQGMQGQDQSQPPLLPQLPPGTDLPPNLTCPNAISQTLASLPAPQLLDVITQMKSLVMADPARATELLRQAPHLAYAIFQALLLMNLVDYSVLGSVVEQASQSQPQPSQQTSQIPQQFQPYPSVPGQISTPPIQHTPFAPPTMPPQPQQQSQQQATQPQIPGHDELLQQVLNMPQSAIDALPPTERSQIMLLRQQLMQGGMR
Take B2: the binding entry was “binds”.

B3: hypothetical protein PADG_04855 (protein, UniProt C1GB54 1-453)
chain: MHGEGEFDLAILASQRNDNATMGVLSPIATATATMTEPARAKTTKTTTTTTTTTTTDSSMHLPFSDSAIDMDTESSGNADQTPETTTIPTTRDTMNATGKSHLQSLTTITTTMIKERLIHLTHLITDSDSHPKPDNRHNKDQNSRNEYSNSSPYHPLTSHATSPSTSLSWSPQKSIAINRYLDGIEALLLALHITGFSSGASSEEEEEEEEEEEEEEEEEEKEVKVDRGENERKTNHCCTLSNNHHDPRLACISLEAGCQNANTKPHNQNQIQTKLDSQLDDVIRDLKVVTGSLEQRRAECLHLNAVFTMKCEKLAQRILDLEEQMEELRAKKIENTIELEGLKGTVRGLEGWIKRWKMRQCEDEEGEEGRNSKHAWSETSDHGRGQWGKPGRVLWGGDGDYDSNDGDVDDDTLMDGVSAWLRDWRDVEEGFRIRARLRERMKAVRRGPGKSE
Turning to B3, the binding entry was “binds”.

B4: hypothetical protein PADG_00449 (protein, UniProt C1G0Q9 1-759)
chain: MYNPYQPPSPFGRPPEFGGFPGAPPGMAPPPGMSAPGTGPPPAAQQSNAQQPGRPGGFPPNFQPPPNMPNINFSAPVIRLGTSGTPKSATPVESGRERGGESGGRRGGPGGHSLESQRQNLRDAMLQLQPPTKDEIVRTIFIGGITEGLSSDEEIELILRTAGNLKRWIRATDADDKPCKFGFAEYEDPESLSTAVEVLKDVEVPVKKPVPAKEVGKVEEDPDKSKLLVIIDDSSLKYIEQFESTTERNPEAEQARLDGARAALAKVLADLTHPPSPAKVDALAQVVDSEGDSEMKDGEAEKDGTPAEVVTIPITVEDELSDIPAEMRETVAKEIAAFRERSNRRDLERLKREEELESLERARAGGSRPNRLTSPPPTAPSGPAGGANGIPLGPRDRGIPNAPSAPKGFGHHIPRDYQKGVSFVNGSGINGANEDEDTDASDEELERRRKEKRAVEAEKQYLDQERRWLNRERSRTAAVEREKNRDREEDIRLQEEKQIMAKRLREWNDDIEASRKVEEYYADRGVWIRNRAAFRNREVSMDEADRAAEEREMARTQQQRDQVRGMADDFLARQAEELETRNQVPREPQRFKLSLGAAAQKAQATVRRTVAEVEGLLEDEEDTGAATKRPLTSIKFDTAAESAGLTDEERAQAARQLAADIPSDKEGLWNWQVNWEFVDESVLGEQLKPFVEKKIMEYLGVQEQMLVDVVEEHVRKRGPPQELVEQLEGALDEEAEVLVKKLWRMIIFFSESEKRGLSG
For B4, the binding entry is reported as “binds”.

B5: Aspartyl aminopeptidase (protein, UniProt C1GA81 1-601)
chain: MLSKLAGKSLCTARSSVSSLARESIAAHSNPARNIFFSLPHQSPPEHQHPMQPWHTMTHSRKLSSFPPLSTSTFKAQANDFLSFVNASPTPFHAVASASKRLVDAGFKEVKERDSWSSTCKPGGKYYVTRNGSTIIAFAIGQKWKPGNSISMIGAHTDSPCLRIKPVSKRTADGFVQVGVETYGGGLWHTWFDRDLGVAGRVMVRNADESIEAKLVHINRPILRIPTLAIHLERQETFSFNKETHLFPIAGLVAAELARKDKDPKAKEYLEIRSKEKKNNGNSGNNGNDAASNATFSPLKPTMERHHPFLIELIASELSTTPHDIVDFELLLYDTQKACLGGLLDEFIFSARLDNLNMSFCAIMGLINSLAQPGALDKESSIRLVALFDDEEIGSRTAQGAFSNILTAILHRLSVLPAETSASAKAPPPDLSTAYEQSLSTSFLVSADMAHSVHPNYSVKYESDHKPEMNKGPVIKINANAFYATNSPGIVILQESARLAGKNHHDDQAGSTSATSPSSETPLEGVPLQLFVVRNDSSSGSTIGPMLSASLGVRTVDLGNPQLSMHSIREMGGSNDVGYAIRLFESYFEHYTELAGKILVG
For the molecule B5, the binding entry is “binds”.
